Experimental data: publication doi:10.1101/769059
Where two headings read alike, the source gives them in different places. Results are given in words; binding and its absence hold for the method and conditions named. In cells and extracts the contact can be indirect. Some entries that bind do so weakly or less than the wild type.

Protein sequences, listed by entry. Tags and fused reporters are not part of them. Lines headed by an entry give the natural chain unless they say otherwise; changes in a name come on top. Residues count along the entry.
UniProt Q99J83: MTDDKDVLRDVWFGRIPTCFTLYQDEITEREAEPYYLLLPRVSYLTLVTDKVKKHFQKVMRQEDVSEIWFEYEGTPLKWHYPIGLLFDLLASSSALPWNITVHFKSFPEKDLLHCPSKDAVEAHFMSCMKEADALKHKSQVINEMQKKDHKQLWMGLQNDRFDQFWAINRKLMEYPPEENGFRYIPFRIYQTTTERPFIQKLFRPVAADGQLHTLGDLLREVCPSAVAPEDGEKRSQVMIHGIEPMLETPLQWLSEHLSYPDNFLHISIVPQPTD
UniProt Q07113, residues 36-2483: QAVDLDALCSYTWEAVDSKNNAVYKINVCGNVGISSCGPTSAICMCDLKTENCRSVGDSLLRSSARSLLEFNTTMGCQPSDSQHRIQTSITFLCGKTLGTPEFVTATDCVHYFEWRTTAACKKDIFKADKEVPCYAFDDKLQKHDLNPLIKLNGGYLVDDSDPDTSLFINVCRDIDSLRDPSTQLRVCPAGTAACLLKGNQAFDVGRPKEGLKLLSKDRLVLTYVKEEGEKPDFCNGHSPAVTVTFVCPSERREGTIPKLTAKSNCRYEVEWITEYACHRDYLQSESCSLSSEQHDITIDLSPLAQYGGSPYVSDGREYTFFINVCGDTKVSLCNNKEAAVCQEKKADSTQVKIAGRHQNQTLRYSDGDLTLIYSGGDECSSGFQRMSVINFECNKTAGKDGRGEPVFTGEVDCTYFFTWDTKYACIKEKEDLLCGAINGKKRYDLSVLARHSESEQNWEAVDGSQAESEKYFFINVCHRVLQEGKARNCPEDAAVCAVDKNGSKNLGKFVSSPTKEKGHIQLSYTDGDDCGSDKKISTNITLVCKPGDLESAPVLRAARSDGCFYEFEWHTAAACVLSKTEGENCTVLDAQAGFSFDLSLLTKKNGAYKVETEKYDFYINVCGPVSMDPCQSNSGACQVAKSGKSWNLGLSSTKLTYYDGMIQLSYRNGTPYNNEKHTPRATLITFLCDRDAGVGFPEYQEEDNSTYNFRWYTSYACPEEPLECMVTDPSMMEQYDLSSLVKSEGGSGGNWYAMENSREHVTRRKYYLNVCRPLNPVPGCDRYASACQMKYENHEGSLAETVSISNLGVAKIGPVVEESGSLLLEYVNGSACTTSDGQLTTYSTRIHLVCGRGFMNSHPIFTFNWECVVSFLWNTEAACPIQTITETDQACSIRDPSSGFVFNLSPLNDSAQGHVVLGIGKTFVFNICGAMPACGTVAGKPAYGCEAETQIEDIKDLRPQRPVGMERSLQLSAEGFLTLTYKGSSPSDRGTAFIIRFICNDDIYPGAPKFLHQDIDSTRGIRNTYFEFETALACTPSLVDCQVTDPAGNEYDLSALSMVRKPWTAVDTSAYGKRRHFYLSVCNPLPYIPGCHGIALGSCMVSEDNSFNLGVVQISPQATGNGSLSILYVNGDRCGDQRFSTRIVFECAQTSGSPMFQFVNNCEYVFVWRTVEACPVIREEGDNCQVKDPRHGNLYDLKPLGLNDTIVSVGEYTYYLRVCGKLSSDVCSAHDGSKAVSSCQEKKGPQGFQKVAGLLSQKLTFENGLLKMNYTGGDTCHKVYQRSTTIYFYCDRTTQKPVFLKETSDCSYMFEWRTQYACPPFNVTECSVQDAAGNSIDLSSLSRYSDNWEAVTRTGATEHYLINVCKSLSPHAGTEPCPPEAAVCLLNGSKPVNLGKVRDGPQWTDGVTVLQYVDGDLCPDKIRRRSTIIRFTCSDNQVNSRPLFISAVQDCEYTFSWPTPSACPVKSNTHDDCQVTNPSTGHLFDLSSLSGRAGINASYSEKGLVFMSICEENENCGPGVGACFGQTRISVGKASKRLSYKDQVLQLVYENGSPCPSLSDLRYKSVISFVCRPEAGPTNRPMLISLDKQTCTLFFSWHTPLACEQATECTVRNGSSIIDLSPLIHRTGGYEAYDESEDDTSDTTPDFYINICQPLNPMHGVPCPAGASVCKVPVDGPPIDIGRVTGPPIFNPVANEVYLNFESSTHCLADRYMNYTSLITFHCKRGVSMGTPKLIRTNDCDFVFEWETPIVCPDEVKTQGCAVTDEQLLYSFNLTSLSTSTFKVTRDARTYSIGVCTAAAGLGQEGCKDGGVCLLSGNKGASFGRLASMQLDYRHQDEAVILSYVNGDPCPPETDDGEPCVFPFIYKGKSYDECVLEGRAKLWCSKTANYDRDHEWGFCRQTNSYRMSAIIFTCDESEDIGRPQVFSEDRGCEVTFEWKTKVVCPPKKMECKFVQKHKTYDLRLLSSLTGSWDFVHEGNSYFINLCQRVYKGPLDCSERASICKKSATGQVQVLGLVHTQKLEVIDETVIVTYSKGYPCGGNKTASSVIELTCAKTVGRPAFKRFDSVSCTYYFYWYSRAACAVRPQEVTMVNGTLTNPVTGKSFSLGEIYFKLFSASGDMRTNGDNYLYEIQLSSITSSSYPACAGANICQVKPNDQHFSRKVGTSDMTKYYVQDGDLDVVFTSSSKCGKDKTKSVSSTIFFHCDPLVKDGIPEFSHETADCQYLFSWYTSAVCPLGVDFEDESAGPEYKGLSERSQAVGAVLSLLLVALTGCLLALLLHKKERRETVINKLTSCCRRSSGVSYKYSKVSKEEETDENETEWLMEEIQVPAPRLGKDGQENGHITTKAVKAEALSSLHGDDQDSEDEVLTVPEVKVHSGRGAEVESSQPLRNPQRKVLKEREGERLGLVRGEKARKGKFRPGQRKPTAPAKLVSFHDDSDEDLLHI
UniProt Q61194: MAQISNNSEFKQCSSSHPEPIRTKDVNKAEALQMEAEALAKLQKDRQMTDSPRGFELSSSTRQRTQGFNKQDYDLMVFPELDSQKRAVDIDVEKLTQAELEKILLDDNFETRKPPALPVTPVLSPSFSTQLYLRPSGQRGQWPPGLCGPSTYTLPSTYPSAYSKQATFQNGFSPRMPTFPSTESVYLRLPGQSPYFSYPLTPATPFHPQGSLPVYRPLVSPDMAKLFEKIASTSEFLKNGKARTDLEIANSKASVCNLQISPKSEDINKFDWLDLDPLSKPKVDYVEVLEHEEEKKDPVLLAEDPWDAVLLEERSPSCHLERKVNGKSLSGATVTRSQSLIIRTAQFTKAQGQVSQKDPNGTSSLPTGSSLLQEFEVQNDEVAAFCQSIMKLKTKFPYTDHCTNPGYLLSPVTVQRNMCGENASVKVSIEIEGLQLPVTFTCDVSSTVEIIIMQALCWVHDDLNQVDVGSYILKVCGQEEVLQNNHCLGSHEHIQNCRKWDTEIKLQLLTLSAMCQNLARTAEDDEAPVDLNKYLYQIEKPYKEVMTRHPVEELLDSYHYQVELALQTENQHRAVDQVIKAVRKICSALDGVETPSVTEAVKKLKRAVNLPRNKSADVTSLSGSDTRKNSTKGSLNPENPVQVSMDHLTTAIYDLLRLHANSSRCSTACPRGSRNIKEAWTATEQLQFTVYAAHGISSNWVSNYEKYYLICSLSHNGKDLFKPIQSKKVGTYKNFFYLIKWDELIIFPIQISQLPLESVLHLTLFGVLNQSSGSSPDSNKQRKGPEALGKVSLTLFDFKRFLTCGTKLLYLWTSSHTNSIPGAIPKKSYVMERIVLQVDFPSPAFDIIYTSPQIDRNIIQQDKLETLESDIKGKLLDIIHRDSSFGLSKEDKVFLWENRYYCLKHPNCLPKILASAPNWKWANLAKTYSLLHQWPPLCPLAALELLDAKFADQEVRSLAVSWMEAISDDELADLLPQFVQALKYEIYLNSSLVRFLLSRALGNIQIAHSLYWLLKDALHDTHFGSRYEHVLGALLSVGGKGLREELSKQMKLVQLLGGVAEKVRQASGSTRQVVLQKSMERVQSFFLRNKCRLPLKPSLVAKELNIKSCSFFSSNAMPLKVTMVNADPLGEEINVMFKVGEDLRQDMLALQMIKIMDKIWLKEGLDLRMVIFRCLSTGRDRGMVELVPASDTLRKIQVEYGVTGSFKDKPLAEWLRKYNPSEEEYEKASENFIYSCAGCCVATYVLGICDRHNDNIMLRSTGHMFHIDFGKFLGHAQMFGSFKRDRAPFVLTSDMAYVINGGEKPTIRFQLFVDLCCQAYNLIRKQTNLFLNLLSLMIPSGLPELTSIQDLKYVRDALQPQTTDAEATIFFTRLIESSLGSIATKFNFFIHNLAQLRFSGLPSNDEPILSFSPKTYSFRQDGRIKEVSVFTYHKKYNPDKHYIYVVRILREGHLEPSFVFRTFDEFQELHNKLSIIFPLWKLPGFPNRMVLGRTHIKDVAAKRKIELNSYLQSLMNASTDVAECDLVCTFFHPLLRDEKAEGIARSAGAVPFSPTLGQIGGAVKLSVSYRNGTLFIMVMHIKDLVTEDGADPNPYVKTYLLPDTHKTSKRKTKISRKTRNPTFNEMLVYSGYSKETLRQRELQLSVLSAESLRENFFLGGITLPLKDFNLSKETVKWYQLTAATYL
UniProt Q91VH2: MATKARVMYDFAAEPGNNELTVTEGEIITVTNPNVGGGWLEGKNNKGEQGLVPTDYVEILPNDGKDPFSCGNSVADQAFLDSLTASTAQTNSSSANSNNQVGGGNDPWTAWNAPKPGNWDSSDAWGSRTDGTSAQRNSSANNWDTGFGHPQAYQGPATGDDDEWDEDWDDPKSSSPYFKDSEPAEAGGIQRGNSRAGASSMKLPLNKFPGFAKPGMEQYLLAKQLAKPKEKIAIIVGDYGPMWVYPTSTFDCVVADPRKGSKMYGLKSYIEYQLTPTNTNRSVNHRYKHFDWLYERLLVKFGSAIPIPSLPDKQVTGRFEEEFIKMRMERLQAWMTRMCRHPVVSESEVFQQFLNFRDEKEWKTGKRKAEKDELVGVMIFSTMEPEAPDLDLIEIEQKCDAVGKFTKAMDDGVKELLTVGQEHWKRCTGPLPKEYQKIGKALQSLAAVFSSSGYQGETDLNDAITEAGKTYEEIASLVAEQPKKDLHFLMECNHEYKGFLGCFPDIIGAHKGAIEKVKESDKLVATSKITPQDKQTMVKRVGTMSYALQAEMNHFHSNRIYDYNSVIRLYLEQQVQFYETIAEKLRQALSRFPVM

B1: DNM2 (protein, UniProt P39054 1-870)
chain: MGNRGMEELIPLVNKLQDAFSSIGQSCHLDLPQIAVVGGQSAGKSSVLENFVGRDFLPRGSGIVTRRPLILQLIFSKTEYAEFLHCKSKKFTDFDEVRQEIEAETDRVTGTNKGISPVPINLRVYSPHVLNLTLIDLPGITKVPVGDQPPDIEYQIKDMILQFISRESSLILAVTPANMDLANSDALKLAKEVDPQGLRTIGVITKLDLMDEGTDARDVLENKLLPLRRGYIGVVNRSQKDIEGKKDIRAALAAERKFFLSHPAYRHMADRMGTPHLQKTLNQQLTNHIRESLPTLRSKLQSQLLSLEKEVEEYKNFRPDDPTRKTKALLQMVQQFGVDFEKRIEGSGDQVDTLELSGGARINRIFHERFPFELVKMEFDEKDLRREISYAIKNIHGVRTGLFTPDLAFEAIVKKQVVKLKEPCLKCVDLVIQELISTVRQCTSKLSSYPRLREETERIVTTYIREREGRTKDQILLLIDIEQSYINTNHEDFIGFANAQQRSTQLNKKRAIPNQGEILVIRRGWLTINNISLMKGGSKEYWFVLTAESLSWYKDEEEKEKKYMLPLDNLKIRDVEKGFMSNKHVFAIFNTEQRNVYKDLRQIELACDSQEDVDSWKASFLRAGVYPEKDQAENEDGAQENTFSMDPQLERQVETIRNLVDSYVAIINKSIRDLMPKTIMHLMINNTKAFIHHELLAYLYSSADQSSLMEESAEQAQRRDDMLRMYHALKEALNIIGDISTSTVSTPVPPPVDDTWLQNTSGHSPTPQRRPVSSVHPPGRPPAVRGPTPGPPLIPMPVGATSSFSAPPIPSRPGPQSVFANNDPFSAPPQIPSRPARIPPGIPPGVPSRRAPAAPSRPTIIRPAEPSLLD
B2: DNM1 (protein, UniProt P39053 1-867)
chain: MGNRGMEDLIPLVNRLQDAFSAIGQNADLDLPQIAVVGGQSAGKSSVLENFVGRDFLPRGSGIVTRRPLVLQLVNSTTEYAEFLHCKGKKFTDFEEVRLEIEAETDRVTGTNKGISPVPINLRVYSPHVLNLTLVDLPGMTKVPVGDQPPDIEFQIRDMLMQFVTKENCLILAVSPANSDLANSDALKIAKEVDPQGQRTIGVITKLDLMDEGTDARDVLENKLLPLRRGYIGVVNRSQKDIDGKKDITAALAAERKFFLSHPSYRHLADRMGTPYLQKVLNQQLTNHIRDTLPGLRNKLQSQLLSIEKEVDEYKNFRPDDPARKTKALLQMVQQFAVDFEKRIEGSGDQIDTYELSGGARINRIFHERFPFELVKMEFDEKELRREISYAIKNIHGIRTGLFTPDMAFETIVKKQVKKIREPCLKCVDMVISELISTVRQCTKKLQQYPRLREEMERIVTTHIREREGRTKEQVMLLIDIELAYMNTNHEDFIGFANAQQRSNQMNKKKTSGNQDEILVIRKGWLTINNIGIMKGGSKEYWFVLTAENLSWYKDDEEKEKKYMLSVDNLKLRDVEKGFMSSKHIFALFNTEQRNVYKDYRQLELACETQEEVDSWKASFLRAGVYPERVGDKEKASETEENGSDSFMHSMDPQLERQVETIRNLVDSYMAIVNKTVRDLMPKTIMHLMINNTKEFIFSELLANLYSCGDQNTLMEESAEQAQRRDEMLRMYHALKEALSIIGDINTTTVSTPMPPPVDDSWLQVQSVPAGRRSPTSSPTPQRRAPAVPPARPGSRGPAPGPPPAGSALGGAPPVPSRPGASPDPFGPPPQVPSRPNRAPPGVPSLGAWRLNSPQGKHENRAGKARL

Key:
Assay in all cases: co-IP
[1] = biological target: K130R GFP-ATG5 (mouse) (UniProt Q99J83)
[2] = biological target: wild-type GFP-ATG5 (mouse) (UniProt Q99J83)
[3] = biological target: K130R GFP-ATG5 (mouse) (UniProt Q99J83); remark: listed apart in the source
[4] = biological target: wild-type GFP-ATG5 (mouse) (UniProt Q99J83); remark: listed apart in the source

Row | Molecule | binding [1] | binding [2] | binding [3] | binding [4]
1 | insulin-like growth factor 2 receptor (from UniProt Q07113 36-2483) | no binding | binds |  | 
2 | phosphatidylinositol 4-phosphate 3-kinase C2 domain-containing subunit alpha (from UniProt Q61194 1-1686) (enzyme) | no binding | binds | no binding | binds
3 | sorting nexin 9 (from UniProt Q91VH2 1-595) | no binding |  |  | 
4 | B1 | no binding |  |  | 
5 | B2 | no binding |  |  | 
